The values that follow come from PubChem BioAssay AID2685 (National Center for Advancing Translational Sciences (NCATS), 2010).

Each structure is given as a SMILES string. Several values for one entry are separate records, joined by “and”; a condition that tells them apart may be missing. Equal values may be shown once. Some of the results follow. Further columns of the screen follow, without active or inactive calls. Compounds called inactive in the main read-out are mostly missing here. Potencies come from curve fits of mixed quality, noted in brackets.

The assay can be described thus: qHTS Assay for Lipid Storage Modulators in Drosophila S3 Cells.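 As to cell number change: cells counted by Cell Tracker Red CMTPX staining in the red channel.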 The conditions noted are these: BODIPY lipid droplet fluorescence, 18-24 h; for cell number change: measured here: cell count max response, cells fed with added oleic acid. The gist of the method:
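Laser-scanning cytometry quantifies lipid droplet accumulation (500–530 nm total intensity; droplet/cell object ratio) in oleic acid-fed (400 uM added) Drosophila S3 cells treated with a concentration series. 20 uM Triacsin C defined 100% inhibition.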
Background: qHTS replaces the single test concentration by a dilution series.

The mark [1] stands for this setting: measured here: cell number channel AC50, cells fed with added oleic acid.
Setting [2] is: measured here: lipid fluorescence (Fed channel) AC50, cells fed with added oleic acid.

Turning to `CCOC(=O)c1cnc2c(C(F)(F)F)cccc2c1N1CCOCC1`, the cell number change was 1.98%.

As a reminder, the AC50 is the midpoint of the concentration-response curve, whichever way the signal moves. A higher AC50 goes with weaker potency. Turning to `O=C(CCN1C(=O)c2ccccc2C1=O)N1CCN(c2ccccn2)CC1`, the cell number change is 13.4%. For the same molecule, the AC50 under setting [1] is 0.206 µM [rising, full curve, poor fit].

As to `Cc1nn(-c2ccccc2)c(Cl)c1/C=C/C(=O)c1ccc(O)cc1`, the cell number change is -43.6%. Further, the AC50 under setting [1] is 16.4 µM [falling, partial curve, poor fit]. For the same molecule, under setting [2], the AC50 is 14.6 µM [falling, single point].

In the case of `Cc1c(CCC(=O)N2CCC(C(=O)O)(c3ccccc3)CC2)c(=O)oc2cc3oc4c(c3cc12)CCCC4`, the cell number change turned out to be 8.09%. Besides, the AC50 under setting [2] is 29.1 µM [rising, single point].

Turning to `Cc1cccc(-n2ncc3c(NCCc4ccc(S(N)(=O)=O)cc4)ncnc32)c1`, the cell number change is -22.4%. Besides, the AC50 under setting [2] was 16.4 µM [falling, partial curve].

On to `NC(=O)N1c2ccccc2C=Cc2ccccc21`, for which the cell number change is -38.2% and 33.2%. The AC50 under setting [1] was 580 nM [falling, full curve] and 32.6 µM [rising, single point]. Further, the half-maximal activity concentration (AC50) under setting [2] was 1.16 µM [falling, single point] and 103 nM [rising, full curve, poor fit].

For `Cc1cccc(C(=O)N(CC(=O)Nc2sc(C)c(C)c2C(N)=O)C2CCCC2)c1`, the cell number change came to 14.8%. Moreover, the AC50 under setting [1] is 3.66 µM [rising, partial curve, poor fit]. For the same molecule, under setting [2], the AC50 is 29.1 µM [falling, single point].

For `CCCCOC(=O)c1ccc(NC(=O)C2CCCO2)cc1` (stereo unspecified), the cell number change amounted to 7.96%. Besides, the AC50 under setting [2] was 2.59 µM [rising, full curve].

`O=C(NCCCN1CCOCC1)C(=O)NCc1ccccc1Cl`: the cell number change was -23.7%. Besides, the AC50 under setting [2] is 29.1 µM [falling, single point].

Consider `O=C1c2ccccc2NC(c2cccc(O)c2)N1c1ccccc1` (stereo unspecified), for which the cell number change came out at 0.945%. Further, the AC50 under setting [2] was 0.0291 µM [rising, full curve, poor fit].

Consider `NC(=O)c1ccccc1OCC(=O)NC12CC3CC(CC(C3)C1)C2`, for which the cell number change worked out at 6.97%. Also, the AC50 under setting [2] was 0.00411 µM [rising, full curve, poor fit].

Regarding `CSc1ccccc1C(=O)NCCCn1ccnc1`, the cell number change is -10.2%. Besides, the AC50 under setting [2] is 29.1 µM [falling, single point].

With `Cc1cc(-c2nnc(SCc3cccnc3)o2)no1`, the cell number change was -12.6%. Further, the AC50 under setting [2] is 6.51 µM [falling, single point].

Regarding `Cc1ccc(Sc2ccncc2S(N)(=O)=O)cc1`, the cell number change was -1.97%. Besides, the AC50 under setting [2] is 32.6 µM [rising, single point].

Regarding `Cc1cc(S(=O)(=O)NCc2cccnc2)ccc1F`, the cell number change was found to be 1.75%. In addition, the AC50 under setting [2] is 6.51 µM [rising, single point].

On to `O=C(c1ccc2c(c1)OCO2)N1CCc2ccccc2C1`, for which the cell number change was -18.7%. Further, the AC50 under setting [2] is 0.259 µM [rising, partial curve].

Regarding `O=C(Nc1cc(C(F)(F)F)ccc1Cl)c1cc(C2CC2)on1`, the cell number change turned out to be 17.6%. Moreover, under setting [2], the AC50 is 29.1 µM [rising, single point].

Consider `CCN(Cc1ccncc1)C(=O)c1ccc(Br)o1`, for which the cell number change is -0.813%.

As for `Cc1ccc2nc(-c3ccc(NS(C)(=O)=O)cc3)cc(-c3ccccc3)c2c1`, the cell number change was -59.4%. In addition, under setting [1], the AC50 was 20.6 µM [falling, single point].

Consider `O=C(O/N=C(\c1ccccc1)c1ccccn1)c1ccc(Cl)c(Cl)c1`, for which the cell number change was -96.5%. In addition, the AC50 under setting [1] was 23.1 µM [falling, partial curve, poor fit]. Besides, the AC50 under setting [2] is 25.9 µM [falling, partial curve].

Regarding `Cc1cccc(N(CC(=O)N2CCN(C)CC2)S(=O)(=O)c2ccccc2)c1`, the cell number change was -18.4%. For the same molecule, under setting [2], the AC50 is 29.1 µM [falling, single point].

On to `CCCCN(C(=O)C1CCC1)c1c(N)n(CCC)c(=O)[nH]c1=O`, for which the cell number change was determined as 2.01%. Besides, the AC50 under setting [2] is 11.6 µM [falling, partial curve].

Consider `N/C(Cc1cccc2ccccc12)=N\OC(=O)Cc1cccs1`, for which the cell number change was -0.896%. For the same molecule, the AC50 under setting [2] was 29.1 µM [rising, single point].

On to `O=[N+]([O-])C(=C1Nc2ccccc2N1)/C(Cl)=C(/Cl)Br`, for which the cell number change is 36.3%. Moreover, under setting [1], the AC50 was 29.1 µM [rising, single point].

For `COc1ccc(N2CCN(C(=O)CSc3ncccc3-c3nc4ccccc4[nH]3)CC2)cc1`, the cell number change was determined as 25.5%. Besides, the AC50 under setting [2] is 1.3 µM [rising, full curve].

As for `Cc1ccc(OCC(=O)OCC(=O)NC2CC2)cc1C`, the cell number change is -16.6%. The AC50 under setting [2] was 0.116 µM [falling, full curve, poor fit].

Regarding `CCCCCCCC(=O)N1c2ccccc2NC(=O)C1CC(=O)Nc1ccc(C(=O)O)cc1` (stereo unspecified), the cell number change was -3.19%. In addition, the AC50 under setting [2] is 0.82 µM [falling, full curve, poor fit].

Turning to `CCN(CC)C(=O)C1=C(C)Nc2nc3ccccc3n2C1c1cccc(OC)c1` (stereo unspecified), the cell number change turned out to be 47.6%. Further, the AC50 under setting [1] was 7.31 µM [rising, partial curve]. For the same molecule, the AC50 under setting [2] was 3.66 µM [rising, partial curve].

`CCCNC(=O)c1ccc(-c2nn(C)c(=O)c3ccccc23)cc1`: the cell number change was -7.62%. Also, the AC50 under setting [2] was 2.91 µM [rising, single point].

For the molecule `CC(Oc1cccnc1[N+](=O)[O-])C(=O)Nc1ccc(F)cc1` (stereo unspecified), the cell number change was 17.7%. For the same molecule, the AC50 under setting [2] is 0.13 µM [falling, full curve, poor fit].

`Cc1cc(=O)[nH]c(N/N=C/c2ccc(-c3ccc(F)cc3)o2)n1`: the cell number change was determined as 68.4%. Also, the concentration at half-maximal activity (AC50) under setting [1] was 16.4 µM [rising, single point].

Turning to `CCCC(=O)Nc1ccc(C(=O)NNC(=O)COc2ccc(Br)c(C)c2)cc1`, the cell number change turned out to be 35.3%. In addition, the AC50 under setting [1] was 14.6 µM [rising, single point].

On to `Cn1cccc1CC(=O)NNC(=S)NC(=O)c1ccccc1Br`, for which the cell number change is -34.2%. Moreover, the AC50 under setting [1] is 32.6 µM [falling, single point].

For `CC(NC(=O)c1ccc(S(=O)(=O)N(C)C)cc1)c1ccc(-n2ccnc2)cc1` (stereo unspecified), the cell number change is 25.4%. Besides, under setting [2], the AC50 is 1.46 µM [rising, full curve, poor fit].

On to `COc1ccc(CC(C(=O)Nc2ccc(OC)cc2)c2nn[nH]n2)cc1` (stereo unspecified), for which the cell number change is -8.66%.

On to `CN(C)c1cc[nH]c(=O)c1C#N`, for which the cell number change was -32.3%. Also, the AC50 under setting [1] was 0.82 µM [falling, full curve]. Besides, the AC50 under setting [2] is 2.31 µM [falling, partial curve, poor fit].

Regarding `COc1cc(/C=C/C(=O)N2C(=O)c3cccc(N)c3C2=O)cc(OC)c1OC`, under setting [2], the AC50 is 6.51 µM [falling, single point].
